Assay results from PubChem BioAssay AID1347075 (National Center for Advancing Translational Sciences (NCATS), 2019).
“And” between values parts separate entries of the source, which are not always exact repeats. Identical values can stand only once. Screen size: about 400,000 compounds; about 5,500 (1.4%) were called active. Inconclusive results, whose numbers are uncertain, are shown with a selection of clear calls. Calls follow the shape of the dose curve; as a rule, active = well fitted cell-killing curve with a large enough effect; inconclusive = small, poorly fitted or top-dose-only effect, or effect the other way; inactive = flat fitted curve, though single readings scatter. Potencies beside an inconclusive call are fits to weak or partial responses and may not hold up.

Experiment: qHTS assay for MDR1-selective chemotherapeutics: Primary screen using the parental adenocarcinoma cell KB-3-1; also: nearly all actives have a fitted effect of over 60% in size
Conditions: KB-3-1 viability, CellTiter-Glo ATP luminescence, 72 h; activity change, negative = cytotoxic: at 46.1 µM (top of the series)
Summary of the method: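 Viability of parental KB-3-1 cells, measured by CellTiter-Glo luminescence, followed a 72 h incubation at 37 °C with pinned compounds in phenol-red-free DMEM containing 10% FBS.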
% is scaled to controls: 0 for no effect and ±100 for the full control effect; potency is read from the fitted curve at half-maximal effect.

Structure (SMILES) | Potency | activity change, negative = cytotoxic
Cc1cc(C)c(C#N)c(SCc2ccccc2C)n1 | inconclusive: 25.9 µM [cytotoxic, single point] | 
CCCn1c(COc2ccccc2OC)nc2ccccc21 |  | inactive: -6.01%
O=C(OCC(=O)c1ccccc1Br)c1ccccn1 | inconclusive: 1.16 µM [rising, partial curve, poor fit] | 
O=C(C1=C[C@H](C2CCCCC2)C[C@H](OCc2ccc(CO)cc2)O1)N1CCN(Cc2ccccc2)CC1 | inconclusive: 29.1 µM [cytotoxic, single point] | 
COc1cccc(CNC(=O)CSc2ncc3c(n2)-c2cc(Cl)ccc2N(C)S3(=O)=O)c1 |  | inactive: -2.5%
O=S(=O)(N/N=C/c1cccc(OC2CSC2)c1)c1ccccc1 | inconclusive: 16.4 µM [cytotoxic, single point] | 
COc1ccc(CCNC(=O)Nc2ccc3c(c2)c(=O)n(C)n3CC=C(C)C)cc1OC |  | inactive: 0%
Brc1ccc(OCc2cn3ccccc3n2)cc1 | inconclusive: 0.146 µM [rising, full curve] | 
O=C(/C=C/c1cccc(F)c1)NNC(=O)c1ccncc1 | inconclusive: 5.8 µM [cytotoxic, full curve] | 
CCOC(=O)N1CCN(Cc2nc3cc([N+](=O)[O-])ccc3n2C(C)C)CC1 |  | inactive: -6.14%
Cc1cccc(N2CCN(C(=O)CN3C(=O)COc4ccc(S(=O)(=O)N5CCC(C)CC5)cc43)CC2C)c1 (stereo not given) |  | inactive: -2.61%
CC(C)(C)NC(=O)C(c1ccc(F)cc1)N(Cc1ccco1)C(=O)c1csnn1 (stereo not given) |  | inactive: -3.47%
O=C(Nc1ccc(C(=O)N2CCCC2)cc1)C1CC1 |  | inactive: 0%
Cc1ccc(/C=C2\SC(N3CCN(C(c4ccccc4)c4ccccc4)CC3)=NC2=O)o1 | inconclusive: 29.1 µM [cytotoxic, single point] | 
Cc1ccc(C(=O)N2CCN(c3ncccn3)CC2)cc1S(=O)(=O)N1CCCCC1 |  | inactive: 3.89%
COC(=O)c1c(N2C(=O)Nc3ccccc3N2O)sc2c1CCCC2 |  | inconclusive: 0%
CCOC(=O)C1CCC(CN(Cc2ccc(Cl)cc2)S(=O)(=O)c2cc(Cl)cc(Cl)c2)CC1 (stereo not given) | inconclusive: 29.1 µM [rising, single point] | 
O=C(CN1CCCCC1)N1CCCc2c1c(=O)oc1ccc(OCc3ccccc3)cc21 | inconclusive: 29.1 µM [cytotoxic, single point] | 
COc1ccc(F)cc1C(=O)C1CCCN(Cc2c(C)n(C)n(-c3ccccc3)c2=O)C1 (stereo not given) | inconclusive: 13 µM [rising, partial curve, poor fit] | 
CCOc1ccccc1NC(=O)Cn1nnc(C(=O)NCc2ccco2)c1N | active: 0.0103 µM | 
N#CCCn1cc(/C=C2\NC(=S)N(c3ccccc3)C2=O)c(-c2ccc(-c3ccccc3)cc2)n1 | inconclusive: 18.4 µM [cytotoxic, single point] | 
CSCCC(N=C(NS(=O)(=O)c1ccccc1)c1ccccc1)C(=O)O (stereo not given) |  | inactive: -5.07%
COc1ccc2[nH]c3c(c2c1)CCN1C(=O)C(CC(=O)NCCC2=CCCCC2)C[C@H](C(=O)N2CCCCC2)[C@@]31CCc1ccccc1 (stereo not given in full) |  | inactive: -11.6%

Structure (SMILES) | Potency | activity change, negative = cytotoxic
CN1CCN(C(=O)c2cc3c(c(-c4cccc(-c5cccnc5)c4)n2)[C@H](CCO)N(C(=O)CC2CC2)C3)CC1 | inconclusive: 13 µM [rising, partial curve, poor fit] | 
Cc1cccc(NC(=O)COc2ccccc2C)n1 |  | inconclusive: -31.4% [cytotoxic]
CC(C)C[C@H](NC(=O)OC(C)(C)C)c1nnc(SCc2cccc(F)c2)o1 |  | inactive: 0%
O=c1c(-c2cc3ccccc3[nH]2)nc2ccccc2n1C(CCc1ccccc1)c1nc2ccccc2[nH]1 (stereo not given) | inconclusive: 29.1 µM [cytotoxic, single point] | 
COc1cccc(NS(=O)(=O)c2ccc3c(c2)[C@H]2C=CC[C@H]2[C@@H](c2ccccc2Cl)N3)c1 | inconclusive: 18.4 µM [cytotoxic, partial curve] | 
Cc1nn(-c2ccccc2)c(Cl)c1C(=O)NNC(=O)c1ccccc1O | inconclusive: 11.6 µM [cytotoxic, partial curve] | 
CCOC(=O)c1[nH]c(C)c(C(=O)Nc2ccc(C)cc2C)c1C | active: 2.59 µM | 
Cc1cnc(NC(=O)CN2CCN(c3ccccn3)CC2)s1 | inconclusive: 18.4 µM [cytotoxic, single point] and inconclusive: 29.1 µM [cytotoxic, single point] | 
Cc1cc2c(cc1C)CSC(c1ccccc1OC(=O)C(C)C)SC2 |  | inactive: -11.5%
CNC(=O)C[C@H]1C(=O)N(c2ccccc2)C[C@@H]1C | inconclusive: 32.6 µM [rising, partial curve, poor fit] | 
CCOC(=O)c1cnc(NCc2ccccc2)nc1C | inconclusive: 0.282 µM [rising, full curve] | 
O=c1[nH]c2ccccc2cc1CN(Cc1ccco1)S(=O)(=O)c1ccc(F)cc1 | inconclusive: 0.517 µM [cytotoxic, full curve, poor fit] | 
CCCCN(C=O)c1c(CC)nc2c(OCC3CCCCC3)cccn12 | inconclusive: 29.1 µM [cytotoxic, single point] | 
CCC(NC(=O)c1ccncc1)c1ccccc1 (stereo not given) |  | inactive: 0.996%
NNc1ncnc2scc(-c3ccc(Cl)cc3)c12 | active: 16.4 µM | 
O=C(/C=C/c1cccc(O)c1)c1cccnc1 |  | inactive: -0.477%
CCCCCCCCN1C(=O)[C@H](CC(=O)NCc2cccc(C(F)(F)F)c2)C[C@@]2(C(=O)OC)CCCCC=C12 | inconclusive: 29.1 µM [cytotoxic, single point] | 
Cc1cccc2sc(NC(=O)C3CC3)nc12 |  | inactive: 6.23%
O=C(CC(O)c1ccncc1)c1ccccc1O (stereo not given) | inconclusive: 29.1 µM [cytotoxic, single point] | 
CCCCNC(=O)c1nn(-c2ccc(C)cc2)c(=O)n(C)c1=O |  | inactive: 7.33%
COc1cc(C(Nc2ccccn2)c2ccc3ccc(C)nc3c2O)cc(OC)c1O (stereo not given) | inconclusive: 29.1 µM [cytotoxic, single point] | 
Cc1cccc(NC(=O)c2ccc(C3SCC(=O)N3CCc3ccccc3)cc2)c1C (stereo not given) | inconclusive: 18.4 µM [cytotoxic, single point] | 
